{"source": "the supplement of paper PMC11732987", "about": "“Enantioselective OTUD7B fragment discovery through chemoproteomics screening and high-throughput optimisation” (Communications Chemistry, 2025)", "note": "This is one part of the list. The data scatter; read single values as rough.", "data": [{"compound": "ClCC(=O)N[C@@H]1CCCc2ccccc12", "assay": "log2 mean competition ratio of IA-DTB cysteine labelling (DMSO/compound) (log2 ratio); higher = stronger cysteine engagement by compound", "conditions": "50 µM; treatment time: 4 h; cell line lysate: HEK293T", "method": "(§1)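 IA-DTB competitive cysteine chemoproteomics in HEK293T RIPA lysate. Lysates were treated with compound 29 or 30 at 50 or 200 µM for 4 h, then IA-DTB (500 µM, 1 h), trypsin-digested, NeutrAvidin-enriched and analysed by diaPASEF. Competition ratio = intensity DMSO / intensity compound (n=4 treated, n=64 DMSO); binding: mean log2 CR ≥ 1 and p ≤ 0.05 plus QC filters. Target is the cysteine site.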", "values": [{"target": "FYN C246 (UniProt P06241)", "log2 mean competition ratio": -0.0781}, {"target": "FDXR C152 (UniProt P22570)", "log2 mean competition ratio": -0.239}, {"target": "FTO C104 (UniProt Q9C0B1)", "log2 mean competition ratio": -0.124}, {"target": "FSCN1 C19 (UniProt Q16658)", "log2 mean competition ratio": 0.0351}, {"target": "FOXJ2 C145 (UniProt Q9P0K8)", "log2 mean competition ratio": -0.156}, {"target": "FBXL20 C389 (UniProt Q96IG2)", "log2 mean competition ratio": 0.00728}, {"target": "FASN C1881", "log2 mean competition ratio": 0.555}, {"target": "FRMD6 C531", "log2 mean competition ratio": 0.103}, {"target": "FBXO30 C592 (UniProt Q8TB52)", "log2 mean competition ratio": -0.0212}, {"target": "FHIP2B C186", "log2 mean competition ratio": -0.0208}, {"target": "FNDC3A C774 (UniProt Q9Y2H6)", "log2 mean competition ratio": 0.139}, {"target": "FKBP4 C396 (UniProt Q02790)", "log2 mean competition ratio": 0.0671}, {"target": "FTSJ1 C278 (UniProt Q9UET6)", "log2 mean competition ratio": 0.146}, {"target": "FKBP10 C392 (UniProt Q96AY3)", "log2 mean competition ratio": 0.11}, {"target": "FMR1 C584 (UniProt Q06787)", "log2 mean competition ratio": -0.0615}, {"target": "FCF1 C144 (UniProt Q9Y324)", "log2 mean competition ratio": -0.0304}, {"target": "FUBP3 C109 (UniProt Q96I24)", "log2 mean competition ratio": -0.19}, {"target": "FCHO2 C273 (UniProt Q0JRZ9)", "log2 mean competition ratio": -0.126}, {"target": "FKBP8 C295 (UniProt Q14318)", "log2 mean competition ratio": -0.0547}, {"target": "FOXF2 C404", "log2 mean competition ratio": 0.212}, {"target": "FBXO42 C403 (UniProt Q6P3S6)", "log2 mean competition ratio": 0.0409}, {"target": "GAMT C220 (UniProt Q14353)", "log2 mean competition ratio": -0.0752}, {"target": "FLII C576 (UniProt Q13045)", "log2 mean competition ratio": -0.167}, {"target": "FUBP1 C132 (UniProt Q96AE4)", "log2 mean competition ratio": -0.138}, {"target": "FLNC C1066 (UniProt Q14315)", "log2 mean competition ratio": -0.00469}, {"target": "FBXO5 C202 (UniProt Q9UKT4)", "log2 mean competition ratio": 0.295}, {"target": "FBXO11 C581 (UniProt Q86XK2)", "log2 mean competition ratio": 0.328}, {"target": "FXR1 C141 (UniProt P51114)", "log2 mean competition ratio": -0.273}, {"target": "FUCA2 C277 (UniProt Q9BTY2)", "log2 mean competition ratio": 0.233}, {"target": "FER C593 (UniProt P16591)", "log2 mean competition ratio": -0.132}, {"target": "FBXO45 C98 (UniProt P0C2W1)", "log2 mean competition ratio": -0.197}, {"target": "FMNL3 C862 (UniProt Q8IVF7)", "log2 mean competition ratio": -0.305}, {"target": "FBXW8 C184 (UniProt Q8N3Y1)", "log2 mean competition ratio": 0.111}, {"target": "FOXF1 C339", "log2 mean competition ratio": -0.296}, {"target": "GATA2 C413 (UniProt P23769)", "log2 mean competition ratio": -0.223}, {"target": "FASTKD2 C546 (UniProt Q9NYY8)", "log2 mean competition ratio": 0.424}, {"target": "FBXL19 C670 (UniProt Q6PCT2)", "log2 mean competition ratio": -0.366}]}, {"compound": "ClCC(=O)N[C@@H]1CCCc2ccccc12", "assay": "log2 mean competition ratio of IA-DTB cysteine labelling (DMSO/compound) (log2 ratio); higher = stronger cysteine engagement by compound", "conditions": "200 µM; treatment time: 4 h; cell line lysate: HEK293T", "method": "as §1", "values": [{"target": "FYN C246 (UniProt P06241)", "log2 mean competition ratio": -0.588}, {"target": "FDXR C152 (UniProt P22570)", "log2 mean competition ratio": 0.103}, {"target": "FTO C104 (UniProt Q9C0B1)", "log2 mean competition ratio": 0.133}, {"target": "FSCN1 C19 (UniProt Q16658)", "log2 mean competition ratio": -0.0586}, {"target": "FOXJ2 C145 (UniProt Q9P0K8)", "log2 mean competition ratio": -0.304}, {"target": "FBXL20 C389 (UniProt Q96IG2)", "log2 mean competition ratio": 0.0939}, {"target": "FASN C1881", "log2 mean competition ratio": -0.643}, {"target": "FRMD6 C531", "log2 mean competition ratio": -0.0101}, {"target": "FBXO30 C592 (UniProt Q8TB52)", "log2 mean competition ratio": 0.169}, {"target": "FHIP2B C186", "log2 mean competition ratio": -0.272}, {"target": "FNDC3A C774 (UniProt Q9Y2H6)", "log2 mean competition ratio": -0.104}, {"target": "FKBP4 C396 (UniProt Q02790)", "log2 mean competition ratio": -0.137}, {"target": "FTSJ1 C278 (UniProt Q9UET6)", "log2 mean competition ratio": 0.00118}, {"target": "FKBP10 C392 (UniProt Q96AY3)", "log2 mean competition ratio": 0.321}, {"target": "FMR1 C584 (UniProt Q06787)", "log2 mean competition ratio": 0.331}, {"target": "FCF1 C144 (UniProt Q9Y324)", "log2 mean competition ratio": 0.0566}, {"target": "FUBP3 C109 (UniProt Q96I24)", "log2 mean competition ratio": 0.0584}, {"target": "FCHO2 C273 (UniProt Q0JRZ9)", "log2 mean competition ratio": 0.101}, {"target": "FKBP8 C295 (UniProt Q14318)", "log2 mean competition ratio": -0.0609}, {"target": "FOXF2 C404", "log2 mean competition ratio": 0.355}, {"target": "FBXO42 C403 (UniProt Q6P3S6)", "log2 mean competition ratio": 0.129}, {"target": "GAMT C220 (UniProt Q14353)", "log2 mean competition ratio": -0.162}, {"target": "FLII C576 (UniProt Q13045)", "log2 mean competition ratio": -0.0822}, {"target": "FUBP1 C132 (UniProt Q96AE4)", "log2 mean competition ratio": 0.0715}, {"target": "FLNC C1066 (UniProt Q14315)", "log2 mean competition ratio": 0.218}, {"target": "FBXO5 C202 (UniProt Q9UKT4)", "log2 mean competition ratio": 0.18}, {"target": "FBXO11 C581 (UniProt Q86XK2)", "log2 mean competition ratio": 0.197}, {"target": "FXR1 C141 (UniProt P51114)", "log2 mean competition ratio": -0.00739}, {"target": "FUCA2 C277 (UniProt Q9BTY2)", "log2 mean competition ratio": 0.428}, {"target": "FER C593 (UniProt P16591)", "log2 mean competition ratio": 0.142}, {"target": "FBXO45 C98 (UniProt P0C2W1)", "log2 mean competition ratio": -0.378}, {"target": "FMNL3 C862 (UniProt Q8IVF7)", "log2 mean competition ratio": -0.0423}, {"target": "FBXW8 C184 (UniProt Q8N3Y1)", "log2 mean competition ratio": -0.221}, {"target": "FOXF1 C339", "log2 mean competition ratio": 0.924}, {"target": "GATA2 C413 (UniProt P23769)", "log2 mean competition ratio": -0.0415}, {"target": "FASTKD2 C546 (UniProt Q9NYY8)", "log2 mean competition ratio": 0.0831}, {"target": "FBXL19 C670 (UniProt Q6PCT2)", "log2 mean competition ratio": 0.671}]}, {"compound": "ClCC(=O)N[C@H]1CCCc2ccccc12", "assay": "log2 mean competition ratio of IA-DTB cysteine labelling (DMSO/compound) (log2 ratio); higher = stronger cysteine engagement by compound", "conditions": "50 µM; treatment time: 4 h; cell line lysate: HEK293T", "method": "as §1", "values": [{"target": "FBXL20 C389 (UniProt Q96IG2)", "log2 mean competition ratio": -0.151}, {"target": "FRMD6 C531", "log2 mean competition ratio": 0.473}, {"target": "FNDC3A C774 (UniProt Q9Y2H6)", "log2 mean competition ratio": 0.545}, {"target": "FCF1 C144 (UniProt Q9Y324)", "log2 mean competition ratio": -0.0828}, {"target": "FLNC C1066 (UniProt Q14315)", "log2 mean competition ratio": -0.279}, {"target": "FUCA2 C277 (UniProt Q9BTY2)", "log2 mean competition ratio": 0.117}]}, {"compound": "ClCC(=O)N[C@H]1CCCc2ccccc12", "assay": "log2 mean competition ratio of IA-DTB cysteine labelling (DMSO/compound) (log2 ratio); higher = stronger cysteine engagement by compound", "conditions": "200 µM; treatment time: 4 h; cell line lysate: HEK293T", "method": "as §1", "values": [{"target": "FYN C246 (UniProt P06241)", "log2 mean competition ratio": -0.591}, {"target": "FRMD6 C531", "log2 mean competition ratio": 0.289}, {"target": "FHIP2B C186", "log2 mean competition ratio": -0.122}, {"target": "FNDC3A C774 (UniProt Q9Y2H6)", "log2 mean competition ratio": -0.198}, {"target": "FCF1 C144 (UniProt Q9Y324)", "log2 mean competition ratio": 0.163}, {"target": "FLII C576 (UniProt Q13045)", "log2 mean competition ratio": 0.187}, {"target": "FLNC C1066 (UniProt Q14315)", "log2 mean competition ratio": 0.226}, {"target": "FBXO5 C202 (UniProt Q9UKT4)", "log2 mean competition ratio": -0.0843}, {"target": "FBXO11 C581 (UniProt Q86XK2)", "log2 mean competition ratio": 0.497}, {"target": "FUCA2 C277 (UniProt Q9BTY2)", "log2 mean competition ratio": 0.192}, {"target": "FOXF1 C339", "log2 mean competition ratio": 0.506}, {"target": "GATA2 C413 (UniProt P23769)", "log2 mean competition ratio": -0.0854}]}]}
